For twelve molecules, binding results are on record in doi:10.1101/2021.03.04.433881.

Sequences of proteins named here, by UniProt entry; tags and fusion partners are left off.
UniProt Q8CEL2: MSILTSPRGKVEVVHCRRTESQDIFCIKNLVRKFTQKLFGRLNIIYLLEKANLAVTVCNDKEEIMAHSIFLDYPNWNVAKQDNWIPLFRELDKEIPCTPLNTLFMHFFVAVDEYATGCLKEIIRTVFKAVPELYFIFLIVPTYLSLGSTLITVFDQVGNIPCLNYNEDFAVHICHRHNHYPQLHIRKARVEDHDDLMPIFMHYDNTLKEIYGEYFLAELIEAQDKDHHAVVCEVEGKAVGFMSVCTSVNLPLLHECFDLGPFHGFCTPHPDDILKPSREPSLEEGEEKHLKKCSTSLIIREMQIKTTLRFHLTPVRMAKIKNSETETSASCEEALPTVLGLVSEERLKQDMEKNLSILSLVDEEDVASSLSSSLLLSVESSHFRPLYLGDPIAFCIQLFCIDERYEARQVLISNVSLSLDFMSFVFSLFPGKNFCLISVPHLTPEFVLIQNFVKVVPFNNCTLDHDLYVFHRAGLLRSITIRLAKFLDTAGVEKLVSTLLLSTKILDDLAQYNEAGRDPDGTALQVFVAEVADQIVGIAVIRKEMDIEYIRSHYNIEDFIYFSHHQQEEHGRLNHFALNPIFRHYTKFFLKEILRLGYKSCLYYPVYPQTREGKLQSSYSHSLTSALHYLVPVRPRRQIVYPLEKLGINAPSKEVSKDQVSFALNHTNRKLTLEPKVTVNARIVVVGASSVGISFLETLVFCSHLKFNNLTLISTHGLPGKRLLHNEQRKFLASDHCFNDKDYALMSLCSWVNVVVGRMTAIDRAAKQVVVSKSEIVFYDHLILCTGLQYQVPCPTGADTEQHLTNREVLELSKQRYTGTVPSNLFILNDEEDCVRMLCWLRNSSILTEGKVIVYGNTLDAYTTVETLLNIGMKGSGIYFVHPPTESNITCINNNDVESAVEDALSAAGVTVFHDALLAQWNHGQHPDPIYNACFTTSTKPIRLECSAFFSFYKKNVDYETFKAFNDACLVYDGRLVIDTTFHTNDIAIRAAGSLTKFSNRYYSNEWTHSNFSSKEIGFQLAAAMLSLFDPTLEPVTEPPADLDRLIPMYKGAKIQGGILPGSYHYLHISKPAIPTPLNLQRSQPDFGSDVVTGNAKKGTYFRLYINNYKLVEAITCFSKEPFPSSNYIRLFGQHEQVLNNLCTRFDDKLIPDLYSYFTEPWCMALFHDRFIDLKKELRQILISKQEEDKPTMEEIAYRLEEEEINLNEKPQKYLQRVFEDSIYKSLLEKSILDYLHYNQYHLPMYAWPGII
UniProt Q9ESG2: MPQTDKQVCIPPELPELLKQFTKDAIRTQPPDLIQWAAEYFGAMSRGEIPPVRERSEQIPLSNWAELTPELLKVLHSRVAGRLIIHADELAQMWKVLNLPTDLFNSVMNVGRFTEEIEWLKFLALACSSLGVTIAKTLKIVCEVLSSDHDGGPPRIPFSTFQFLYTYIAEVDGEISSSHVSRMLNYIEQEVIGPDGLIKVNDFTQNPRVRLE
UniProt Q8BRC6: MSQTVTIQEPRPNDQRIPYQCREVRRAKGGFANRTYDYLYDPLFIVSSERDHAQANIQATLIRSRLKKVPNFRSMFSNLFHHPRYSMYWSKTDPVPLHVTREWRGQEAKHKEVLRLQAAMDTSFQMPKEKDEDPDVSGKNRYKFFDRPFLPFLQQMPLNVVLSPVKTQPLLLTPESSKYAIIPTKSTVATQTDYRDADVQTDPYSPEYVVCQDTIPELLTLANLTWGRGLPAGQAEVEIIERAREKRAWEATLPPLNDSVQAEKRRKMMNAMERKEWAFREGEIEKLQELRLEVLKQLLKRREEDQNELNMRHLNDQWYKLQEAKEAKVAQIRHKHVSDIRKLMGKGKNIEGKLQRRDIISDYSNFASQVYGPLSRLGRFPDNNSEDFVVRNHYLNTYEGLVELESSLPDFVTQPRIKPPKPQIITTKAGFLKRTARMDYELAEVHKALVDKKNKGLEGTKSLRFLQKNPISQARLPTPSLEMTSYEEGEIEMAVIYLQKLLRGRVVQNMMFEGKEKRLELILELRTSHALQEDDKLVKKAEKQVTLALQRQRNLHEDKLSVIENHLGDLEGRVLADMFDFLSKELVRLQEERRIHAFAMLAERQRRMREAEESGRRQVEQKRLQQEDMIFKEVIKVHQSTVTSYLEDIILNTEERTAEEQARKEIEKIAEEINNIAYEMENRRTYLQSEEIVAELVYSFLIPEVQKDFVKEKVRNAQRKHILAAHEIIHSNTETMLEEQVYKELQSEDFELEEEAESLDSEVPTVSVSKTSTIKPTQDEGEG
UniProt Q6PDL0: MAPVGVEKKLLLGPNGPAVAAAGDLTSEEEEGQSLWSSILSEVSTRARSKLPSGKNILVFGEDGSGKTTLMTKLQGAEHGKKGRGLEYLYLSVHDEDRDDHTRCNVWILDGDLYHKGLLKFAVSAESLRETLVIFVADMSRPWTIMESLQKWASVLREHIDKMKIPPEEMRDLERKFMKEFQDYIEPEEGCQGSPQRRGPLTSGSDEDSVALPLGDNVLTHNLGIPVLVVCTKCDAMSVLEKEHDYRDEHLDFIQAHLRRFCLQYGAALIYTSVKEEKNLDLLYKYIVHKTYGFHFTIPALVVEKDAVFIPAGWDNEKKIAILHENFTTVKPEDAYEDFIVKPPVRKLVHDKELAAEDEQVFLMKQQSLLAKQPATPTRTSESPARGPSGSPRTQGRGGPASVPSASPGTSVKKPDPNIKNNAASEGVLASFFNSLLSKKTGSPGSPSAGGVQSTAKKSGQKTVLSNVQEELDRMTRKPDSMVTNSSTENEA

Where two headings read alike, the source gives them in different places. Results are given in words; binding and its absence hold for the method and conditions named. Binding seen in cells or lysates may run through a third protein. Some entries that bind do so weakly or less than the wild type. For part of these data: Where a sequence is shown, tags or fusion partners need not be part of it.

For experiment [1], the target named is CFAP61 (mouse), FLAG- or HA-tagged (mouse) (UniProt Q8CEL2). Put plainly: co-IP.
The target is the same in experiment [2]. Description: co-IP. This is another data set of the same source.

In the case of “ROPN1 (mouse), FLAG- or HA-tagged (from UniProt Q9ESG2 1-212)”, the binding result in experiment [1] is “binds”.
The same measure, in the same setting: for “MAATS1 (mouse), FLAG- or HA-tagged (from UniProt Q8BRC6 1-783)” the value was “binds”; for “DYNCLI2 (mouse), FLAG- or HA-tagged (from UniProt Q6PDL0 1-492)”, “binds”.

B1: IFT22 (mouse), FLAG- or HA-tagged (protein, UniProt Q9DAI2 1-185)
chain: MLKAKILFVGPCESGKTVLANFLTESSDITEYNPTQGVRILEFENPHVTSNNKGTGCEFELWDCGGDSKFESCWPALMKDAHGVVIVFNADIPSHLKEIEMWYSCFVQQQFLQDSHCMLVAHHKPGSGGERGSLALSPPLNKLKLVHSNLEEDPEEVRVEFIKYLKSIINSMSESRDREEMLIIT
For B1, the binding entry in experiment [2] is given as “binds”.

B2: ARMC4 (mouse), FLAG- or HA-tagged (protein, UniProt B2RY50 1-1037)
chain: MGVALTRLAQWTAAGYETGTLEITPLNESILNEITKFVESFSYKYPQEAKFVFVEPLEWKTYLEPSAFELGYVVSATTAESEETGKDGQPLLFLSVPYIKVRSFGQLSQLLSIATDSKLQEAQACIEANRDPVVKILGPDYNEMKEDPTRLTLLDTIIKDKETYMKRKVAILLKQLDLHLLNHSLKYISLEISLNPGTFKKDIELLKRFSGKGEQTVLESIEYTSDYEFSNGCRAPPWRQIQGEICYVLVKPHDMETLCLTCSTEGVFLNGGKTEEEGEINYERKGEIYKDLVTCLKDKSPVFSENMSKHEIRFTEEQQKDNQIFEKPKTEDGHSSVAGSEKSKIEKISFGKSPMTKRLEPSLNWRVTVDYKDHKSSIKDSQEEKQGKLEKSSSVSVAPSRAQSHRKGGEKVEETVSESSSESEEDEEPPDHRQEANADLPSEYWQIQKLVKYLKGGNQTATVIALCSMRDFNLAQETCQLAIRDVGGLEVLINLLDTDEVKCKIGSLKILKEISHNPQIRRNIVDLGGLPIMVNILDSPHKSLKCLSAETIANVAKFKRARRAVRQHGGITKLVALLDCGQNSTEPTQPSLYETRDVEVARCGALALWSCSKSHSNKEAIRKAGGIPLLARLLKTSHENMLIPVVGTLQECASEENYRAAIKAERIIENLVKNLNSENEQLQEHCAMAIYQCAEDEETRDLVRLHGGLKPLASLLNNTDNKERLAAVTGAIWKCSISKENVIKFREYKAIETLVGLLTDQPEEVLVNVVGALGECCQEYENRVLVRKCGGIQPLVNLLVGINQALLVNVTKAVGACAVEPESMAIIDRLDGVRLLWSLLKNPHPDVKASAAWALCPCIENAKDAGEMVRSFVGGLELVVNLLKSDNKEVLASVCAAITNIAKDQENLAVITDHGVVPLLSKLANTNNDKLRRHLAEAISRCCMWGRNRVAFGEHKAVAPLVRYLKSNDTNVHRATAQALYQLSEDADNCITMHENGAVKLLLDMVGSPDQDLQEAAAGCISNIRRLALATEKARYN
B2: the binding entry in experiment [2] was “binds”.

B3: WDR35 (mouse), FLAG- or HA-tagged (protein, UniProt Q8BND3 1-1181)
chain: MFFYLSKKIAVPNNVKLKCISWNKDQGFIACGGEDGLLKVLRLETQTDDSKLRGLAAPSNLSMNQNLEGHSGAVQVVTWNEQYQKLTTSDQNGLIIVWMLYKGSWYEEMINNRNKSVVRSMSWNADGQKICIVYEDGAVIVGSVDGNRIWGKDLKGIQLCHVTWSADSKILLFGMANGEIHIYDNQGNFIMKMKLNCLVNVTGAISIAGIHWYHGTEGYVEPDCPCLAICFDNGRCQIMRHENDQNPVLIDTGMYVVGIQWNHIGSVLAVAGSQKVVTQDKDINIVQFYTPFGEHLGTLKVPGKQMCSLSWEGGGLKIALAVDSFIYFANIRPDYKWGYCSNTVVYAYTRPDRPEYCVVFWDTKNSEKYVKYVKSLISITTCGDFCILATKADENHPQEENEMETFGATFVLVLCNSIGTPLDPKYIDLVPLFVAMTKTHVIAASKEAFYTWQYRVAKKLTALEINQITRSRKEGRERIYHVDDVPSGSVDGVFDYSKAIQGTRDPICAITASDKTLIVGRESGVIQRYSFPNVALIQKYSLDCRACQLSLNCNSSRLAIIDIAGVLTFFDLDTRVTDSTGQQVVGELLKLERKDVWDMKWAKDNPDLFAMMEKTRMYVFRNLDPEEPIQTSGYICNFEDLEIKSVLLDEILKDPEHPSKDYIMNFEIRSLRDSRALIEKVGIEDASQFIEDNPHPRLWRLLAEAALQKLDLYTAQQAFVRCKDYQGIKFVKLLGNLQSESMKQAEVIAYFGRFEDAERMYQDMDRRDLAIGLRMKLGDWFRVLQLLKTGSGDADDSLLEQANNAIGEYFADRQKWQNAVQYYVKGRNQERLAECYYMLEDYEGLETLANSLPENHKLLPEIAQMFVRVGMCEQAVSAFLKCNQPKAAVDTCVHLNQWNKAVELAKSHSMKEIGSLLARYASHLLEKNKTLDAIELYRKASYFFDAAKLMYKIADEEAKKRTKPLRVKKLYVLSALLIEQYHEQMKNAQRGKVKGKNSEATSALAGLLEEEVLSTTSRFTDNAWRGAEAYHFFILAQRQLYEGYVDTALKTALHLRDYEDIIPSVEIYSLLALCACASRAFGTCSKAFIKLESLETLSAEQKQQYEDLALEIFTKHTPKDNRKSELNSLLEGGEGKLPTCIATGSPIIEYQFWVCKVCKHYVLAQEISNYNFCPLCHSSVE
Turning to B3, the binding entry in experiment [2] is “binds”.

B4: RSPH3A (mouse), FLAG- or HA-tagged (protein, UniProt Q3UFY4 1-516)
chain: MAATNIWAALPAKKRPLHQRARRPAGGRGREPEVPFTTDPSGNPAGRNCLEFLPPGGTSGCSATDGGATVPLALRPFLRERRPLGSQHPCPWHYLQVSDYDDSLAPTCFRAHLHRRGSSSTLNQASAMTDPNPRTAEASGLYTYSSRPRAVACQRRRHRDSILQPVEEPMSYGNIMYDRRVIRGNTYALPTGQVPGQPDPLELQRQQQARRRALARKRAQEQLKPRTPEPVEGRKHVDIQTELYLEEIADRIVEVDMECQTDAFLDRPPTPLFIPAKTGKDVATQILGGELFDFDLEVKPMLEVLVGKTIEQSLLEVMEEEELANLRARQYAYEEIRNVELAEVQRLEEQERRHREEKERRKKQQWEIVHKRNETLQKISALIFARQYLANLLPSVFDKLRNSGFFYDPIERDIEVGFLPWLMNEVEKSMEHSMVGRTVLDMLIRDVVERRINDYEHKEAMPPGQKTNVINGPNTVTDPSVTTLHTQKPVLDRVSSQPAPSQERKPVEEGGHLMAE
On to B4, for which the binding entry in experiment [2] is reported as “binds”.

B5: RSPH9 (mouse), FLAG- or HA-tagged (protein, UniProt Q9D9V4 1-276)
chain: MDADSLLLSLELASGSGQGLSPDRRASLLTSLMLVKRDYRFARVLFWGRILGLVADYYIAQGLSEDQLAPRKTLYSLNCTEWSLLPPATEEMAMQISVVSGRFMGDPSHEYEHTELQKVNEGEKVFDEEVVVQIKEETRLVSIIDQIDKAVAIIPRGALFKTPFGVTHVNRTFEGLPLSEVRKLSSYFHFREAIDLKNKTLLEKSDLEPSLDFLDSLEYDIPRGSWSIQMERGNALVVLRSLLWPGLTFYHAPRTKNYGYIYVGTGEKNMDLPFML
On to B5, for which, in experiment [2], the binding entry is recorded as “binds”.

B6: ROPN1L (mouse), FLAG- or HA-tagged (protein, UniProt Q9EQ00 1-218)
chain: MPLPDTMFCAQQIHIPPELPDILKQFTKAAIRTQPADVLQWSAGYFSALSRGDPLPVKDRIEMPVATQKTDTGLTQGLLKVLHKQCSHKQYVELADLEKKWKNLCLPVEKLRTILELDPCEDKIEWIKFLALGCSSLGRTLNTAMKNVCEILTSDPEGGPARIPFETFAYVYQYLSGLDPELPAVETENYLTSLRLMSESRKNGMIGLSDFFVGKKII
Regarding B6, the binding result in experiment [2] is recorded as “binds”.

B7: DYNLRB2 (mouse), FLAG- or HA-tagged (protein, UniProt Q9DAJ5 1-96)
chain: MTEVEETLKRIQSHKGVIGTMVVNAEGIPIRTTLDNSTTVQYAGLLHQLTMKAKSTVRDIDPQNDLTFLRIRSKKHEIMVAPDKEYLLIVIQNPCE
As for B7, the binding entry in experiment [2] is given as “no binding”.

B8: IFT74 (mouse), FLAG- or HA-tagged (protein, UniProt Q8BKE9 1-600)
chain: MASNHKSSAPRPISRGGIGLTGRPPSGIRPPSGNVRVATAMPPTTARPGSRGGPLGTGGVLSSQIKVADRPVTQQGLSGMKTGMKGPQRQILDKSYYLGLLRSKISELTTEINKLQKEIEMYNQENSVYLSYEKRAETLAVEIKDFQGQLADYNMLVDKLNTNTEMEEVMSDYNMLKAQNDRETQSMDVIFTERQAKEKQIRSVEEEVEQEKQAADGIIKNMSPEKQVKYIEMKTTNEKLLQELDTLQQQLDSLNMKKESLETEIAHSQVKQEAVLLYEKLYELESHRDQMIAEDKSMGSPMEERERLLKQVKEDNQEIASMERQLTDIKEKINQFSEEIRQLDMDLEEHQGEMNQKYKELKKREENMDAFIETFEETKNQELERKAQIEASIITLLEHCSRNINRMKQISSITNQELKMMQDDLSFKSTEMQKSQTTARNLTSDSQRLQLDLQKMELLESKMTEEQQSLKNKIKQMTADLETYSDLAALKSSAEEKKKKLHQERTVLSTHRNAFKKIMEKLTSDYDTLKRQLQDNETHAQLTNLERKWQHLEQNNFVMKEFIATKSQESDYQPVIKNVMKQIAEYNKTIMDALHNASRS
For B8, the binding result in experiment [2] was “no binding”.

B9: IFT81 (mouse), FLAG- or HA-tagged (protein, UniProt O35594 1-676)
chain: MSDQIKFIVDSLNKEPFKKNYNLITFDSLGPMQLLQVLNDVLAEIDPKQDVDIREEMPEQTAKRMLNLLGILKYKPPGNATDMSTFRQGLVIGSKPVIYPVLHWLLQRSNELKKRAYLARFLIKLEVPSEFLQDETVADTNKQYEELMEAFKTLHKECEQLKTSGFSTAEIRRDISAMEEEKDQLMKRVERLKKRVETVQNHQRMLKIARQLRVEKEREEFLAQQKQEQKNQLFHAVQRLQRVQNQLKSMRHAAADAKPESLMKRLEEEIKFNSYMVTEKFPKELESKKKELHFLQKVVSEPAMGHSDLLELETKVNEVNTEINQLIEKKMMRNEPIEGKLSLYRQQASIISRKKEAKAEELQETKEKLASLEREVLVKTNQTREFDGTEVLKGDEFKRYVSKLRSKSTVFKKKHQIIAEFKAEFGLLQRTEELLKQRQETIQHQLRTIEEKKGISGYSYTQEELERVSALKSEVDEMKGRTLDDMSEMVKKLNSLVSEKKSALAPVIKELRQLRQKCQELTQECDEKKAQYDSCAAGLESNRSKLEQEVRGLREECLQEESKYHYTNCMIKNLEVELRRATDEMKAYVSSDQQEKRKAIREQYTKNITEQENLGKKLREKQKAVRESHGPNMKQAKMWRDLEQLMECKKQCFLKQQSPASIGQVIQEGGEDRLVL
B9: in experiment [2], the binding result is reported as “binds”.
